For 3 molecules, binding results are on record in patent CN112830970A.

Chains of the proteins cited; added tags and fusions are not shown. Residues count along the entry.
UniProt P20273, residues 20-847: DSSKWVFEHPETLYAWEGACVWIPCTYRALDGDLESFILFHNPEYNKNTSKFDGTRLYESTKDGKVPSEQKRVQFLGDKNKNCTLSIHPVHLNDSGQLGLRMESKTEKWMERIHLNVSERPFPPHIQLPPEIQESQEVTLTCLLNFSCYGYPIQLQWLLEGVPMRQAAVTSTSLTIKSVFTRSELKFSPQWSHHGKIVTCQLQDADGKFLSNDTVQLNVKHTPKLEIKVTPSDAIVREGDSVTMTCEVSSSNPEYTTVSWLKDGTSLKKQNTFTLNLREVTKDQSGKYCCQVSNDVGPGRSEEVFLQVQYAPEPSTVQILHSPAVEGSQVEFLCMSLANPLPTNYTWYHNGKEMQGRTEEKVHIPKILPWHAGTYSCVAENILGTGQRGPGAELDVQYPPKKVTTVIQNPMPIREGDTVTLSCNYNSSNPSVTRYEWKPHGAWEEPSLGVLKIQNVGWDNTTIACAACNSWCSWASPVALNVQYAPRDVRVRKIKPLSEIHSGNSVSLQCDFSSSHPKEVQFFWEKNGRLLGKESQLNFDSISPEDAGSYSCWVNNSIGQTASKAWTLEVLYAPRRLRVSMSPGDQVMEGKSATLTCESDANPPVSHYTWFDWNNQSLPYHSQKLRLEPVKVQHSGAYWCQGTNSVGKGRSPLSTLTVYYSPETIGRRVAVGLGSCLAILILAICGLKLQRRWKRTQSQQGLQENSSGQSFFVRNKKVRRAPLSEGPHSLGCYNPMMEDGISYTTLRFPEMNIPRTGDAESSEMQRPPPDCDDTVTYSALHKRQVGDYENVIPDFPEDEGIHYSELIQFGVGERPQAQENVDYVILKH

Results are given in words; binding and its absence hold for the method and conditions named. Some results given as binding are weak or reduced against the parent protein; the word gives no strength.

The target in assay [1] is CD22 on CHO-K1-CD22 cells (表达CD22的重组细胞株) (UniProt P20273). Nature of the assay: flow cytometry on cells expressing CD22.
Assay [2] has the same target. Nature of the assay: flow cytometry on recombinant cells expressing CD22, PE anti-human IgG.

B1: H10抗体 (未做人源化处理的原始CD22纳米抗体) (VHH, not shown: a dimerising Fc or GST)
VHH: AVQLVESGGGLVQPGGSLRLSCAASGFTLDHYHIGWFRQAPGKEREGVSCISNSGGSTNYADSVKGRFTISRDNAKNTVYLQMNSLKPEDTAVYYCAAGRWYYDGSRYCPPGAMDYWGKGTLVTVSS
In the case of B1, the binding entry in assay [1] was “binds”.

B2: H10-2-4 (氨基酸替换设计为1E、37V、44G、45 L、119 Q、47W的人源化CD22纳米抗体) (VHH, not shown: a dimerising Fc or GST)
VHH: EVQLVESGGGLVQPGGSLRLSCAASGFTLDHYHIGWVRQAPGKGLEWVSCISNSGGSTNYADSVKGRFTISRDNAKNTVYLQMNSLKPEDTAVYYCAAGRWYYDGSRYCPPGAMDYWGQGTLVTVSS
For B2, the binding result in assay [2] was “binds”.

B3: H10-2-1 (氨基酸替换设计为1E、37V、44G、45 L、119 Q的人源化CD22纳米抗体) (VHH, not shown: a dimerising Fc or GST)
VHH: EVQLVESGGGLVQPGGSLRLSCAASGFTLDHYHIGWVRQAPGKGLEGVSCISNSGGSTNYADSVKGRFTISRDNAKNTVYLQMNSLKPEDTAVYYCAAGRWYYDGSRYCPPGAMDYWGQGTLVTVSS
On to B3, for which the binding result in assay [2] is “binds”.
